No constants are given. Whether binding was seen depends on the method and setting. Some binding calls cover weakened binding; strength is not graded here. Where a sequence is shown, tags or fusion partners need not be part of it.
Experiments:
Experiment in all cases: two-hybrid; Matchmaker GAL4 two-hybrid system 3, yeast AH109; VAL1 constructs in pGADT7 (AD), SNL constructs in pGBKT7 (BD); growth on medium lacking Trp, Leu, His and Ade, 3-5 d at 30 °C
[1] = biological target: T1, SNL1 (SIN3-LIKE 1), full length, fused to the GAL4 binding domain (Arabidopsis thaliana) (UniProt Q9SRH9)
T1 sequence: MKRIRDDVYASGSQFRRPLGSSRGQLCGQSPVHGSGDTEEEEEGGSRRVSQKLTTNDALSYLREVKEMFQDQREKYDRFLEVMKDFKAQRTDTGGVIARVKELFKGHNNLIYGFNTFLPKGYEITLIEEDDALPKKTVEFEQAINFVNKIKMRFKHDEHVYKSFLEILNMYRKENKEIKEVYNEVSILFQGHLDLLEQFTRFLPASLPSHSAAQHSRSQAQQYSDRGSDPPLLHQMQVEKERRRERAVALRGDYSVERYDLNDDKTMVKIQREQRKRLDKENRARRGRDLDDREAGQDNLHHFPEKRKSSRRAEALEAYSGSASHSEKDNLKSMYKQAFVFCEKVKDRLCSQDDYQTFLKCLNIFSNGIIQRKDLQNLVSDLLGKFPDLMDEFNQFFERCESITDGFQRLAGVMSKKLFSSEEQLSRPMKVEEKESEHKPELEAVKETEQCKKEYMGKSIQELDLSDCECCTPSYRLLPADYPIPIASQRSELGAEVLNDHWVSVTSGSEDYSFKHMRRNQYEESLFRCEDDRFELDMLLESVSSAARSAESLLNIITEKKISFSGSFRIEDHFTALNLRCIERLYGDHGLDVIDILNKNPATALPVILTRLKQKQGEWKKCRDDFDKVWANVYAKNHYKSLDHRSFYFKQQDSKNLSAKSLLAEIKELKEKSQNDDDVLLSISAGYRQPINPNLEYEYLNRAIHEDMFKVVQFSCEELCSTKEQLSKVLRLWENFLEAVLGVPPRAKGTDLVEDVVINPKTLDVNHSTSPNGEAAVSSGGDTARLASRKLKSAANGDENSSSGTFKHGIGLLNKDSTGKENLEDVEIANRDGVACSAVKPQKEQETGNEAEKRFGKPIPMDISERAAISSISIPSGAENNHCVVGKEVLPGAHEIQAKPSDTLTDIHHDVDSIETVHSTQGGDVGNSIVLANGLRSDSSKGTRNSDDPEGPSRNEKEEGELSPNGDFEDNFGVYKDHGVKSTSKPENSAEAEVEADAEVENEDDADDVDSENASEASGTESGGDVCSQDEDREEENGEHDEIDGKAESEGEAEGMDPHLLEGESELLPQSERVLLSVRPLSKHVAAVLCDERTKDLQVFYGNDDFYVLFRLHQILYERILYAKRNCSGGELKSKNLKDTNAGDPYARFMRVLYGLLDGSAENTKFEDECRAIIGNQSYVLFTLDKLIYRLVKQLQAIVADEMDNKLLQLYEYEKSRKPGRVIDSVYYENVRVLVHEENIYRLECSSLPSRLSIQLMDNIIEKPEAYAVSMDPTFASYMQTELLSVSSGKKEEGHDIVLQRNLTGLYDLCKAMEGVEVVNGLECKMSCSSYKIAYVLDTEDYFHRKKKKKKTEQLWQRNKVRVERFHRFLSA

The chains behind the UniProt entries cited, without tags or fusion partners. Where a name states a change or a piece, a line headed by the entry shows the natural chain unless it says otherwise. A line that says so, or that is headed by a name, gives the form on record, which may keep a tag or linker. Residues count along the entry.
UniProt O48686, residues 1-390: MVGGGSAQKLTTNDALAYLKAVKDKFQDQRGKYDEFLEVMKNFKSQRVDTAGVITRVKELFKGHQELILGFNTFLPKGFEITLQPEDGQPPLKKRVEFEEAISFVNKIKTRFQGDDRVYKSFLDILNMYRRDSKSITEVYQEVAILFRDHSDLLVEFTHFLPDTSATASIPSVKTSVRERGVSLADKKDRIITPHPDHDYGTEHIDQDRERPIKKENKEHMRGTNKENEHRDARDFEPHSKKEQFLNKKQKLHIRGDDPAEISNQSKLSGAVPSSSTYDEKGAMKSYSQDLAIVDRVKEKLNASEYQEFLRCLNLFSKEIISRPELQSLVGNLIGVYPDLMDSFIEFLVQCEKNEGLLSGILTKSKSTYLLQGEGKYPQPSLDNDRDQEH
UniProt O04539, residues 1-420: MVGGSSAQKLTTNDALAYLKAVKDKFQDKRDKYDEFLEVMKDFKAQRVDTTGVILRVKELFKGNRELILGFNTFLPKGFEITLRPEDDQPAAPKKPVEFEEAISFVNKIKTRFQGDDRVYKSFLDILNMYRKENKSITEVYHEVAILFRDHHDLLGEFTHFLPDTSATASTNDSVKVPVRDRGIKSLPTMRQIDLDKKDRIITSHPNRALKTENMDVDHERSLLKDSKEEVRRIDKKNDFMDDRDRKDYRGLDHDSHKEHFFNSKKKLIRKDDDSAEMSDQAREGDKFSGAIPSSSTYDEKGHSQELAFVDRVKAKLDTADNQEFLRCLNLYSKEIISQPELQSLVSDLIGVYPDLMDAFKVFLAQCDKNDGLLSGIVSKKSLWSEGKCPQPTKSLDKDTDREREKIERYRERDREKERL
UniProt Q9XIE1: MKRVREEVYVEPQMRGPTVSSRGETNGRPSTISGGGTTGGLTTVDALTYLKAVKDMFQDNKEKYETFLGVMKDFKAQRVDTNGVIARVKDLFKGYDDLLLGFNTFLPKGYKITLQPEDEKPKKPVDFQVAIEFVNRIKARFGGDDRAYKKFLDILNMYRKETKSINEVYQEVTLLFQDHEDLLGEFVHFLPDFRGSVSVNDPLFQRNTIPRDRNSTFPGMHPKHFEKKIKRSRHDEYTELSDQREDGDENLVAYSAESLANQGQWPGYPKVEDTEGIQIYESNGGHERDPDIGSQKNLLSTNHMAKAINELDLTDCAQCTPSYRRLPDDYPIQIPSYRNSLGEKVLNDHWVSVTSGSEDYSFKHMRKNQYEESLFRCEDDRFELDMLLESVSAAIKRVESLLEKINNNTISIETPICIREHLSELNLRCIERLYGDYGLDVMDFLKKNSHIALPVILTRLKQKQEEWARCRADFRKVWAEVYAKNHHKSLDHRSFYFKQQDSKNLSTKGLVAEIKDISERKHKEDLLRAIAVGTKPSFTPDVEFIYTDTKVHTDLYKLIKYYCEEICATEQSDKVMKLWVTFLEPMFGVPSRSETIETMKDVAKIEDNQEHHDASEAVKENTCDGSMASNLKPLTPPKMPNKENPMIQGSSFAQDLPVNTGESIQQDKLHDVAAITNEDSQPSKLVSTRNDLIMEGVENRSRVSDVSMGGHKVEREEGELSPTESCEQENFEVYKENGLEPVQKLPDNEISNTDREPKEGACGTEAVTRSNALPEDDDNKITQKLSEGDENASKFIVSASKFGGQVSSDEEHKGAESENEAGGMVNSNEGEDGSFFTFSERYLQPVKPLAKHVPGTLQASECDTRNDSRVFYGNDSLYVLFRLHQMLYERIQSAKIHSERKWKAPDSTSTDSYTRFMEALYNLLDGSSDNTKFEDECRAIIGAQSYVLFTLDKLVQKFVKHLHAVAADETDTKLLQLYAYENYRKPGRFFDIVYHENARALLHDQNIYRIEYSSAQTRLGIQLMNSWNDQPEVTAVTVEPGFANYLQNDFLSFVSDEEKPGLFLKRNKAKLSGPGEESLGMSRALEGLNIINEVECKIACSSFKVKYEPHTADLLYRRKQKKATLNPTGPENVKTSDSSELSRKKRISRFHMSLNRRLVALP
SNL5-PAH (aa 1–250), fused to the GAL4 binding domain: residues 1-250 of Q9XIE1
UniProt Q9XIK6: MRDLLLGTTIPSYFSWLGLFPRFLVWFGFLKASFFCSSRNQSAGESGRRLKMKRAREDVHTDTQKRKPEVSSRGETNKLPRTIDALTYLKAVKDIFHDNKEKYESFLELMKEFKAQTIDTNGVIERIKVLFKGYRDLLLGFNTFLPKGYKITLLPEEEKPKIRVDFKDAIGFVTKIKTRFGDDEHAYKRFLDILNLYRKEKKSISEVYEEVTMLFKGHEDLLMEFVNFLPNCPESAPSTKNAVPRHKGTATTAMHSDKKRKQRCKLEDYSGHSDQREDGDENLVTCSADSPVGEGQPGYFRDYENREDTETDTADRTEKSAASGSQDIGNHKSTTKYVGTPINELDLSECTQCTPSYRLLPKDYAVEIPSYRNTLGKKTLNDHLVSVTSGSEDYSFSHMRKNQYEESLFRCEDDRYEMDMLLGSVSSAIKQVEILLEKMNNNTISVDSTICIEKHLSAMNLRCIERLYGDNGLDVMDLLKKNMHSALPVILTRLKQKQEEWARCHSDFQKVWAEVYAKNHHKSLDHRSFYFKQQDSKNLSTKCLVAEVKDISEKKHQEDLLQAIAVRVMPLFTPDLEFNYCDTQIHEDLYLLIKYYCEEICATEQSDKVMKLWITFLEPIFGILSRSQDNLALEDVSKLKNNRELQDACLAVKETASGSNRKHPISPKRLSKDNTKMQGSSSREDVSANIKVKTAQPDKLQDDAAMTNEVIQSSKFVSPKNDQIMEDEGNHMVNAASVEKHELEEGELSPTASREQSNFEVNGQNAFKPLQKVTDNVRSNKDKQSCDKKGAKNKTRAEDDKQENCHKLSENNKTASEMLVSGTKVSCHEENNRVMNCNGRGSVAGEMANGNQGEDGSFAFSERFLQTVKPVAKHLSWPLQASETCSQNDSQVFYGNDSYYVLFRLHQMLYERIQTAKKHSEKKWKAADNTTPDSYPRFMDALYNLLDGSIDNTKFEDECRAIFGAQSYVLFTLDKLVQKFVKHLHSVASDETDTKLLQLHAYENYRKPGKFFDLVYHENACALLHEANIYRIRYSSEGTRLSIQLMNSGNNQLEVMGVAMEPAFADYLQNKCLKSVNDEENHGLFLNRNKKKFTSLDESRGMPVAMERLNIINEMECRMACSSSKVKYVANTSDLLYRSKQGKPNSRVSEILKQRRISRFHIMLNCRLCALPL

[2] = biological target: T2, SNL2-PAH (aa 1–430), fused to the GAL4 binding domain (Arabidopsis thaliana) (UniProt Q9LFQ3)
T2 sequence: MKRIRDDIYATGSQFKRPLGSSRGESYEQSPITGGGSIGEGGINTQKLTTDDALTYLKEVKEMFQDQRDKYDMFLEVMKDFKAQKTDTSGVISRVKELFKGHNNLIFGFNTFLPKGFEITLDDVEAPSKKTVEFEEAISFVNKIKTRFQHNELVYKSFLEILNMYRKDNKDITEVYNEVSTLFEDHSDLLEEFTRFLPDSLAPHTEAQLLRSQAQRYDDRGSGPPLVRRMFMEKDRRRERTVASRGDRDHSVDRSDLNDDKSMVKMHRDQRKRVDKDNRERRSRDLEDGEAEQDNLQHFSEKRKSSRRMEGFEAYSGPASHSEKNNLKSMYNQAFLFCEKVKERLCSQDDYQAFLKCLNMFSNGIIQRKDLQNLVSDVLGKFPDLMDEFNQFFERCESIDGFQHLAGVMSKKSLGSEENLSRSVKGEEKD

[3] = biological target: SNL3-PAH (aa 1–390), fused to the GAL4 binding domain (Arabidopsis thaliana) (UniProt O48686)
[4] = biological target: SNL4-PAH (aa 1–420), fused to the GAL4 binding domain (Arabidopsis thaliana) (UniProt O04539)
[5] = biological target: SNL5 (SIN3-LIKE 5), full length, fused to the GAL4 binding domain (Arabidopsis thaliana) (UniProt Q9XIE1)
[6] = biological target: SNL5-PAH (aa 1–250), fused to the GAL4 binding domain (Arabidopsis thaliana) (UniProt Q9XIE1)
[7] = biological target: SNL6 (SIN3-LIKE 6), full length, fused to the GAL4 binding domain (Arabidopsis thaliana) (UniProt Q9XIK6)

Measured: binding

B1: VAL1 (VIVIPAROUS1/ABSCISIC ACID …3-LIKE1), full length, fused to the GAL4 activating domain (protein, UniProt Q8W4L5 1-790)
chain: MFEVKMGSKMCMNASCGTTSTVEWKKGWPLRSGLLADLCYRCGSAYESSLFCEQFHKDQSGWRECYLCSKRLHCGCIASKVTIELMDYGGVGCSTCACCHQLNLNTRGENPGVFSRLPMKTLADRQHVNGESGGRNEGDLFSQPLVMGGDKREEFMPHRGFGKLMSPESTTTGHRLDAAGEMHESSPLQPSLNMGLAVNPFSPSFATEAVEGMKHISPSQSNMVHCSASNILQKPSRPAISTPPVASKSAQARIGRPPVEGRGRGHLLPRYWPKYTDKEVQQISGNLNLNIVPLFEKTLSASDAGRIGRLVLPKACAEAYFPPISQSEGIPLKIQDVRGREWTFQFRYWPNNNSRMYVLEGVTPCIQSMMLQAGDTVTFSRVDPGGKLIMGSRKAANAGDMQGCGLTNGTSTEDTSSSGVTENPPSINGSSCISLIPKELNGMPENLNSETNGGRIGDDPTRVKEKKRTRTIGAKNKRLLLHSEESMELRLTWEEAQDLLRPSPSVKPTIVVIEEQEIEEYDEPPVFGKRTIVTTKPSGEQERWATCDDCSKWRRLPVDALLSFKWTCIDNVWDVSRCSCSAPEESLKELENVLKVGREHKKRRTGESQAAKSQQEPCGLDALASAAVLGDTIGEPEVATTTRHPRHRAGCSCIVCIQPPSGKGRHKPTCGCTVCSTVKRRFKTLMMRRKKKQLERDVTAAEDKKKKDMELAESDKSKEEKEVNTARIDLNSDPYNKEDVEAVAVEKEESRKRAIGQCSGVVAQDASDVLGVTELEGEGKNVREEPRVSS
binds: all assays above

B2: VAL1-CW (aa 458–673), fused to the GAL4 activating domain (domain or fragment, UniProt Q8W4L5 458-673)
chain: DDPTRVKEKKRTRTIGAKNKRLLLHSEESMELRLTWEEAQDLLRPSPSVKPTIVVIEEQEIEEYDEPPVFGKRTIVTTKPSGEQERWATCDDCSKWRRLPVDALLSFKWTCIDNVWDVSRCSCSAPEESLKELENVLKVGREHKKRRTGESQAAKSQQEPCGLDALASAAVLGDTIGEPEVATTTRHPRHRAGCSCIVCIQPPSGKGRHKPTCGCT
binds: all assays above

From PMC9266683
